The record followed here is patent US20070192880.

No signal at the amounts used counts as a negative. For part of these data: The exact form of at least one protein or probe is not confirmed. For part of these data: Where a protein sequence is shown, tags need not be part of it.

Data set [1] has as its target ERα (expressed in cells) (UniProt P03372). Kind of data set: activity in cells. The following applies: COS-1, E2; no induction; protein in cells; variant of consensus ERE; only the site is given.
Data set [2] addresses T1, CDC (in vitro translated) (UniProt P03372).
T1 sequence: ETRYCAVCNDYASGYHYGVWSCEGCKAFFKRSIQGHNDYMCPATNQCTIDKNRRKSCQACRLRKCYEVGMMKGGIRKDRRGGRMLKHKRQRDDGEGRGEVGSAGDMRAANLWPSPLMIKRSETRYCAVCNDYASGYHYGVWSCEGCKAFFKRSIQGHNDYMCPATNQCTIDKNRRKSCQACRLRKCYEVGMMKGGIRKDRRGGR
In words: EMSA. The following applies: half-site; protein translated in vitro; label: 32P end-label; only the motif is given; variant of consensus ERE. For orientation: Mobility shift assays separate free from complexed probe on a gel.

Data set [3] has as its target ERα (in vitro translated) (UniProt P03372). Kind of data set: EMSA. The following applies: half-site; protein translated in vitro; protein details: Flag, rabbit reticulocyte; label: 32P end-label; only the motif is given; variant of consensus ERE.

Regarding “AGGTCATGACCT (double strand) [palindromic TRE (ERE half-sites, 0 spacer)]”, the “activity on this sequence” value in data set [1] is reported as “not active”.
Turning to “GGTCA (double strand) [ERE half-site fragment]”, the binding result in data set [2] and in data set [3] was “no binding” each time.
